Reference: patent US6740681B1, “Pharmaceutical compositions comprising thiram” (Yeda Research and Development Co. Ltd., priority 1998, dated 2004)
At least one compound was matched to its structure with a doubt left.

Test system: bovine capillary endothelial cells (BCE)
Experiment: DNA synthesis (3H-thymidine incorporation) in BCE cells
Type: cell-based

SMILES: CCN(CC)C(=S)SSC(=S)N(CC)CC [disulfiram]
- concentrations inhibiting DNA synthesis in a dose dependent manner (BCE cells, 24 hours incubation): 50 nM-0.5 μM
- sensitivity of BCE cells to the inhibitory activity versus BALB/MK, C6 glioma, BSMC (DNA synthesis): more sensitive
